# Test results as given in PubChem BioAssay AID504467 (National Center for Advancing Translational Sciences (NCATS), 2011).
# In all, about 330,000 compounds went through this assay and about 7,700 (2.3%) were called active. The inconclusive results got no clear call from the source; some entries with a clear call stand among them for comparison. The call rests on the fitted dose curve; in most records, active means well fitted inhibition curve with a large enough effect; inconclusive means small, poorly fitted or top-dose-only effect, or effect the other way; inactive means flat fitted curve, though single readings scatter. Potencies beside an inconclusive call are fits to weak or partial responses and may not hold up.
# Test: qHTS screen for small molecules that inhibit ELG1-dependent DNA repair in human embryonic kidney (HEK293T) cells expressing luciferase-tagged ELG1; further: nearly all actives have a fitted effect of over 55% in size
# Details: HEK293T ELG1-luciferase reporter, luminescence, 16 h, DNA damage induced by 5-fluorouridine; activity change, negative = inhibition: at 46.1 µM (top of the series)
# Outline: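 Reporter activity after DNA damage by 5-fluorouridine is monitored. Compound-treated cells incubate 16 hr at 37 °C, then ONE-Glo is added for 30 min before luminescence reading.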
# On the % scale 0 is the no-effect control and ±100 the full control effect; potency means the concentration at half of the fitted maximal effect.
SMILES,Potency,"activity change, negative = inhibition"
Cn1c(N)c(C(=O)COC(=O)c2cncc(Br)c2)c(=O)n(C)c1=O,"inconclusive: 0.116 µM [activator, full curve]",
CCOc1ccccc1N1CCN(C(=O)CNC(=O)c2sc3ccccc3c2Cl)CC1,"inconclusive: 18.3 µM [inhibitor, single point]",
Cc1cc(C)n(-c2nnc(C)n2/N=C/c2ccc(O)cc2)n1,"inconclusive: 29.1 µM [inhibitor, partial curve, poor fit]",
Cc1oc(S(=O)(=O)N(C)C)cc1C(=O)Nc1ccc(Cl)cc1,"inconclusive: 29.1 µM [inhibitor, single point]",
O=C(c1nc[nH]c1C(=O)N1CCN(c2ccccc2)CC1)N1CCN(c2ccccc2)CC1,,inactive: 3.61%
Cc1nc(Nc2ccc(Cl)cc2Cl)sc1C(=O)Nc1ccccc1,"inconclusive: 18.4 µM [inhibitor, single point]",
COC(=O)c1cc(C(=O)OCC(=O)NC(=O)c2ccccc2)cc([N+](=O)[O-])c1,,inactive: 11.4%
O=C(Nc1cnccn1)Nc1ccccc1F,"inconclusive: 13 µM [activator, partial curve]",
O=C(c1cc(=O)[nH]c2ccccc12)N1CCN(Cc2ccc3c(c2)OCO3)CC1,,inactive: -1.99%
CSc1ccc(N=Nc2c(C)[nH]n(C)c2=O)cc1,,inactive: 0%
COc1ccc(CN2CCN(S(=O)(=O)c3ccccc3)CC2)cc1Br,"inconclusive: 11.6 µM [inhibitor, partial curve, poor fit]",
O=C(N/N=C/c1ccc(Cl)c([N+](=O)[O-])c1)c1cc(-c2ccccc2)nc2ccccc12,"inconclusive: 18.3 µM [activator, single point]",
CCCc1c(C(=O)Nc2ccc(OC)cc2)cnn1-c1ccccc1,"inconclusive: 16.4 µM [inhibitor, partial curve, poor fit]",
COC(=O)[C@]1(C)CCC[C@@]2(C)C3CC[C@@]4(C)C[C@]3(CCC21)CC(=O)N4 (some centres not stated),,inactive: 3.97%
CCn1c2ccccc2c2cc(N=C3SC(CC(=O)Nc4ccccc4OC)C(=O)N3CCOC)ccc21 (configuration not stated),"inconclusive: 16.4 µM [inhibitor, single point]",
O=C(N/N=C/c1cccs1)C(=O)N1CCCC1,"inconclusive: 23.1 µM [activator, single point]",
CCOC(=O)c1cc2c(C)n(-c3ccc(OCC)cc3)c(C)c2cc(C(=O)OCC)c1=O,,inactive: 12.9%
N=c1c(C(=O)NCC2CCCO2)cc2c(=O)n3ccccc3nc2n1Cc1ccco1 (configuration not stated),,inactive: 3.56%
COc1ccc(C2(CNC(=O)/C=C\c3ccco3)CCCC2)cc1OC,,inactive: -3.51%
Cn1c(=O)[nH]c(=O)c2c1nc(N1CCOCC1)n2CCSc1nc2ccccc2[nH]1,,inactive: 10.8%
N#CC1(Cc2ccc([N+](=O)[O-])cc2)c2ccccc2C=CN1C(=O)c1ccccc1 (configuration not stated),,inactive: -0.173%
O=C(CNC(=O)c1ccccc1F)NCCN1C(=O)S/C(=C\c2ccccc2Cl)C1=O,,inactive: -0.936%
O=C(CSc1nnc(-c2cccs2)n1Cc1ccccc1)N1CCc2ccccc2C1,"inconclusive: 18.4 µM [inhibitor, single point]",

SMILES,Potency,"activity change, negative = inhibition"
CCOc1cccc(-c2c(C(=O)N/N=C/c3ccc(Br)cc3)nnn2-c2nonc2N)c1,"inconclusive: 14.6 µM [inhibitor, partial curve]",
O=c1c2ccccc2nc2sc3ccccc3n12,"inconclusive: 11.6 µM [activator, partial curve]",
COC(=O)c1c(NC(=O)COC(=O)c2ccc(NC(=O)CC#N)cc2)sc2c1CCCCC2,"inconclusive: 29.1 µM [activator, single point]",
CCCn1c(SCC(=O)Nc2cc(S(=O)(=O)N3CCOCC3)ccc2Cl)n[nH]c1=O,"inconclusive: 16.4 µM [inhibitor, partial curve, poor fit]",
COc1ccccc1N1CCN(C(=O)c2ccc(CN3CCc4ccccc4C3)cc2)CC1,"inconclusive: 29.1 µM [inhibitor, single point]",
CCOC(=O)C(=O)Nc1nc(-c2ccccc2)c(-c2ccccc2)o1,,inactive: 0.648%
CCOC(=O)c1cnc(SCC(=O)N2CCOCC2)nc1N,"inconclusive: 32.6 µM [inhibitor, partial curve, poor fit]",
Cn1cc(CNC(=O)C2CCC(=O)N(Cc3ccccc3F)C2)cn1 (configuration not stated),,inactive: 11.5%
N=c1n(CCN2CCCCC2)c2ccccc2n1CC(=O)c1ccc(Cl)c(Cl)c1,"inconclusive: 3.66 µM [inhibitor, single point]",
COc1ccc2nc(-c3cccc(N)c3)[nH]c2c1,"inconclusive: 1.46 µM [activator, full curve]",
COc1ccc(N2CCN(CC(=O)N3CCC(C)CC3)CC2)cc1,,inactive: -6.68%
CCCCCCC(=O)N(O)C1CC(=O)N(c2ccc(F)cc2)C1=O (configuration not stated),"inconclusive: 23.1 µM [activator, single point]",
COc1cccc(/C=C(/C(=O)OCC(=O)NC2CCCC(C)C2C)c2ccccc2)c1 (configuration not stated),"inconclusive: 25.9 µM [inhibitor, partial curve, poor fit]",
COc1ccccc1N1CCN(c2ncc(C(=O)N3CCN(c4cccc(Cl)c4)CC3)c3ccccc23)CC1,active: 5.17 µM,
Cc1ccc(-c2nc3ncccc3o2)cc1NC(=O)COc1ccccc1,"inconclusive: 18.4 µM [activator, partial curve, poor fit]",
O=C(CCCCn1c(=O)c2ccccc2n(Cc2ccc(Cl)cc2)c1=O)NCc1ccco1,"inconclusive: 4.11 µM [inhibitor, single point]",
CCN(CC)C(=O)CSC1=N/C(=C/c2ccco2)C(=O)N1c1ccc(OC)c(Cl)c1,"inconclusive: 29.1 µM [inhibitor, single point]",
O=C(NC1CCCCCCC1)c1cc(F)c(F)cc1Cl,"inconclusive: 16.4 µM [activator, partial curve]",
CC(NC(=O)/C(C#N)=C/c1cn[nH]c1-c1ccccc1)c1ccccc1 (configuration not stated),"inconclusive: 29.1 µM [inhibitor, single point]",
Cn1c2c(c(=O)n(C)c1=O)C(C(F)(F)F)(C(F)(F)F)N=C(c1ccc(Cl)cc1)N2,active: 0.651 µM,
C[C@@]12C(=O)N(c3ccc(F)cc3)C(=O)N1[C@@H]1c3ccccc3OC[C@@H]1[C@H]2c1ccccc1,"inconclusive: 0.231 µM [activator, single point]",
Cc1ccc(N(C(=O)c2snc(C(N)=O)c2N)C(C(=O)NC2CCCC2)c2ccco2)cc1 (configuration not stated),,inactive: -37.3%
COCn1ccnc1C(O)(c1ccc(OC)cc1)c1ccc(OC)cc1,,inactive: -12.7%

SMILES,Potency,"activity change, negative = inhibition"
CC(C)(C)[C@@H]1C=C(C(N)=O)O[C@H](OCc2ccc(CO)cc2)C1,"inconclusive: 6.51 µM [inhibitor, partial curve]",
COc1ccc(-c2ccccc2[C@H]2[C@@H]3C=CC[C@@H](C)[C@@H]3C(=O)N2Cc2ccccc2)cc1,"inconclusive: 13 µM [inhibitor, partial curve, poor fit]",
NC(=O)C1CCN(C(=O)C2CCN(C(=O)Nc3ccccc3)CC2)CC1,,inactive: 18%
Cc1cccc(NC(=O)c2cc(NC(=O)c3ccccc3)ccc2N2CCCCC2)c1,"inconclusive: 13 µM [inhibitor, partial curve, poor fit]",
CCN(c1ccc2c(c1)OCO2)S(=O)(=O)c1cc(Br)cc2c1N(C(=O)C1CC1)CC2,"inconclusive: 18.4 µM [inhibitor, single point]",
COc1cccc(N(CC(=O)Nc2cccc(N(C)S(C)(=O)=O)c2)S(C)(=O)=O)c1,"inconclusive: 8.2 µM [inhibitor, partial curve, poor fit]",
COc1ccc(C2=C(C=Nc3c(C)n(C)n(-c4ccccc4)c3=O)C(c3ccccc3C)c3ccccc3O2)cc1OC (configuration not stated),active: 2.91 µM,
C#CCOC(=O)CCCC(=O)NCCCCCCCC,,inactive: 16.9%
Cc1ccc(Nc2nc(-c3sc(NC(=O)c4ccco4)nc3C)cs2)cc1,active: 10.3 µM,
O=C(c1cc(-c2ccccc2)on1)N1CCCc2ccccc21,"inconclusive: 13 µM [activator, partial curve]",
CC(=O)Oc1cc2c(C(=O)NCCN3CCOCC3)c(C)oc2c2ccccc12,"inconclusive: 20.6 µM [activator, partial curve, poor fit]",
Cc1ccc(C(=O)NC(C)CCc2ccccc2)cc1S(=O)(=O)N1CCOCC1 (configuration not stated),active: 18.3 µM,
Cc1ccccc1C(=O)O/N=C(\N)c1ccncc1,"inconclusive: 14.6 µM [activator, partial curve]",
Cc1cc(NC(=O)c2n[nH]c(=O)c3ccccc23)ccc1Br,"inconclusive: 9.2 µM [activator, partial curve]",
O=C(c1ccco1)N1CCN(Cc2nc3ccc([N+](=O)[O-])cc3c(=O)n2-c2ccccc2F)CC1,active: 23.1 µM,
COc1ccc(C2C(C#N)=C(N)N(N(C)C)C3=C2C(=O)CC(C)(C)C3)cc1 (configuration not stated),,inactive: 26.4%
Cc1ccc(S(=O)(=O)Nc2ccc3nc(N)sc3c2)cc1,"inconclusive: 11.6 µM [inhibitor, partial curve]",
CCc1ccccc1N=C1S/C(=C/c2ccccc2OCC(=O)N2CCOCC2)C(=O)N1C,"inconclusive: 29.1 µM [inhibitor, single point]",
O=C(c1cccc(S(=O)(=O)NCc2ccccc2)c1)N1CCCC(C(F)(F)F)C1 (configuration not stated),"inconclusive: 25.9 µM [inhibitor, single point]",
Cc1c(NC(=O)c2cccnc2)c(=O)n(-c2ccccc2)n1C,"inconclusive: 6.51 µM [activator, single point]",
CCOC(=O)c1sc(NC(=O)Nc2ccc(Cl)cc2)nc1C,"inconclusive: 8.2 µM [activator, partial curve]",

# Looked up by compound from above (6):
SMILES,Potency,"activity change, negative = inhibition"
O=C(c1cc(-c2ccccc2)on1)N1CCCc2ccccc21,"inconclusive: 13 µM [activator, partial curve]",
CC(=O)Oc1cc2c(C(=O)NCCN3CCOCC3)c(C)oc2c2ccccc12,"inconclusive: 20.6 µM [activator, partial curve, poor fit]",
Cc1cccc(NC(=O)c2cc(NC(=O)c3ccccc3)ccc2N2CCCCC2)c1,"inconclusive: 13 µM [inhibitor, partial curve, poor fit]",
COc1ccc(C2C(C#N)=C(N)N(N(C)C)C3=C2C(=O)CC(C)(C)C3)cc1 (configuration not stated),,inactive: 26.4%
COc1cccc(N(CC(=O)Nc2cccc(N(C)S(C)(=O)=O)c2)S(C)(=O)=O)c1,"inconclusive: 8.2 µM [inhibitor, partial curve, poor fit]",
COc1ccc(-c2ccccc2[C@H]2[C@@H]3C=CC[C@@H](C)[C@@H]3C(=O)N2Cc2ccccc2)cc1,"inconclusive: 13 µM [inhibitor, partial curve, poor fit]",
